Data taken from the supplement of paper PMC10338343.
± gives the standard deviation. This is a selection; strong and weak results do not stand in their true shares. Many entries were measured with a wide error.

test system: MIWI (PIWIL1) piRISC loaded with L1MC piRNA (30 nt); test: pre-steady-state target cleavage rate (min^-1); MIWI and MILI are mouse PIWI proteins and EfPiwi is from a freshwater sponge; tags in brackets are library labels; higher = faster piRNA-guided slicing of the target; settings: guide: L1MC piRNA 5'p-UAACUAAAUACUAUGCAAGCUGUAGGUCCU; auxiliary factor: 500 nM mouse GTSF1
How it was run: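 The pre-steady-state cleavage rate was derived from a burst-and-steady-state fit of Cleave-'n-Seq data. For these assays, 1 nM active affinity-purified piRISC loaded with a single synthetic guide was mixed with […] a transcribed, DNA-blocked target RNA library in HEPES–potassium acetate buffer at 33 °C, with or without 500 nM GTSF1 partner protein, for 0–8 or 0–960 min. Sequencing counts of uncleaved targets were normalised to depth and to weakly complementary targets, and k3 was capped at 0.0001 min^-1 after three trials were pooled.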
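Further: 1 nM active piRISC with 0.1 nM target library at 33 °C single turnover.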

Row | Sequence | pre-steady-state target cleavage rate
1 | UCCUGGAUGUCGUUGCUUAGUAUUUUGUUA | 0.000157 ± 0.028
2 | UCCUGGAUGUCGAACCAUAGUAUGUUAGUUA | 0.000148 ± 0.04
3 | UCCUGGAUGUCGAUGCAUAGUUUUUACUUA | 0.000333 ± 0.018
4 | UCCUGGAUGUCGUUGCAUAGUAUUUUGAUA | 0.0004 ± 0.023

same assay, conditions: guide: L1MC piRNA 5'p-UAACUAAAUACUAUGCAAGCUGUAGGUCCU; auxiliary factor: none (no GTSF1)

Row | Sequence | pre-steady-state target cleavage rate
5 | UCCUGGAUGAGCUUCCAAAGUAUUUAGUUA | 0.00148 ± 0.0039
6 | UCCUGGAUGUCCUUGCAUAGUAUUCUAGUUA | 0.00312 ± 0.0037
7 | UCCUCCUACAGCUUGCUUAGUAUUUAGAAA | 0.00234 ± 0.0025
8 | UCCUGGAUGUGCAACCAUAGUAUUUAGAAA | 0.000148 ± 0.05
9 | UCCUGGAUGUCGAACCAUAGUAUUUAGGUA | 0.000232 ± 0.02
10 | UCCUGGUACAGCAUCCAUAGUAUUUAGUUA | 0.00138 ± 0.0048
11 | UCCUCCUACAGCUUGCAUAGUAUUUUCUAA | 0.00316 ± 0.0036
12 | UCCUGGAACAGCUUGCAUUCAAUUUAGUUA | 0.000631 ± 0.0066
13 | UCCUGGAUGUCGAAGCAUAGUAUUAGUUA | 0.000225 ± 0.015
14 | UCCUCCUACAGCUUGCAAUGUAUUUUCAAA | 0.000726 ± 0.0062
15 | UCCUGGAUGUCGUAGCAUAGUAUUAAGUUA | 0.000539 ± 0.0097
16 | UCCUGGAUGUCGAACGAUACAAUUUAGUUA | 0.000266 ± 0.025
17 | UCCUGGAUGUCGAUGCAUAGUAUUUUGUAA | 0.000314 ± 0.013
18 | UCCUGGAUGUCCUUGCAAAGUAUAUAGUUA | 0.00157 ± 0.0045
19 | UCCUGGAUGUCGUUGCAUAGUAUUUAGUAA | 0.00203 ± 0.0037
20 | UCCUGGUACAGCUUGACAUAGUAUUUAGUUA | 0.00195 ± 0.0041
21 | UCCUGGAUCAGCUUGCAUAGAUAUUAGUAA | 0.000288 ± 0.018
22 | UCCUGCUACUCGUUGCAUAGUAUUUUCAAA | 0.000611 ± 0.0075

Row | Sequence | pre-steady-state target cleavage rate
23 | UCCUGGAACAGGAAGCAUAGUAUUUAGUAA | 0.00178 ± 0.005
24 | UCCUGGUACAGCUACCAUAGUAUUUAGAAA | 0.000776 ± 0.011
25 | UCCUGGUACAGCUUCGAUAGUAUUUAGUAA | 0.00188 ± 0.0043
26 | UCCUGGAUGUCGAUGCAUAGUAAAAUCAAA [g9:g17:cont:t1A] | 0.000456 ± 0.012
27 | UCCUGGAUGUCGUCUGCAUAGUAUUUAGUUA | 0.00165 ± 0.0045
28 | UCCUGGAUGUCCUUGCAUACUAAUUAGUUA | 0.00145 ± 0.005
29 | UCCUGGAUGUCGAUCCAUAGUAUUAAGUUA | 0.000168 ± 0.03
30 | UCCUGGAUGUCGAUGCAUACAUUUUAGUUA | 0.000212 ± 0.025
31 | UCCUGGAUCAGCAAGCAUAGUAUUUAGUAA | 0.00246 ± 0.0032
32 | UCCUGGAUGAGGUUGCAUAGUAUAUAGUUA | 0.00279 ± 0.0052
33 | UCCUGGAUGUCCUUGCAAAGUAUUAAGUUA | 0.00159 ± 0.004
34 | UCCUGGAUGUCGAACCAUAGUAUAAAGUUA | 0.000165 ± 0.026
35 | UCCUGGUACAGCAACCAUAGUAUUUAGAAA | 0.00105 ± 0.0091
36 | UCCUGGAUCAGCAUGCAUAGUAUUUUCAAA | 0.00084 ± 0.0078
37 | UCCUGGAUGUCGUUGCAUAGUAUUUAGUUC [g2:g18:cont:t1C] | 0.0024 ± 0.0034
38 | UCCUGGAACAGCAACCAUAGUAUUUUCAAA | 0.000802 ± 0.0057
39 | UCCUGGAUGUCCUUGCAUACUAUUUACUUA | 0.0012 ± 0.0052
40 | UCCUCCUAGAGCUUCCAUAGUAUUUAGUUA | 0.0022 ± 0.0027
